{"source": "patent US20220288000A1", "about": "“CHEWABLE FORMULATIONS” (HOFFMAN TECHNOLOGIES LLC, priority 2021, published 2022)", "origin": "cited, not measured here", "settings": "relative to sucrose", "note": "Residues, ends and D or L forms follow the SMILES beside them.", "data": [{"smiles": "COC(=O)[C@H](Cc1ccccc1)NC(=O)[C@@H](N)CC(=O)O", "note": "[Aspartame, Methyl L-α-aspartyl-L- phenylalaninate] (H-Asp-Phe-OMe)", "values": [{"measurement": "sweetness, times as sweet as sucrose", "result": "180 to 200", "unit": "times"}]}, {"smiles": "O=C[C@H](O)[C@@H](O)[C@H](O[C@@H]1O[C@H](CO)[C@H](O)[C@H](O)[C@H]1O)[C@H](O)CO", "note": "[Lactose, 4-O-β-D-galactopyranosyl-D-glucose]", "values": [{"measurement": "level of sweetness as percent of sucrose", "result": "about 15%"}]}, {"smiles": "OC[C@@H](O)[C@@H](O)[C@H](O)[C@H](O)CO", "note": "[Mannitol]", "values": [{"measurement": "level of sweetness as percent of sucrose", "result": "about 50%"}]}, {"smiles": "COC(=O)[C@H](Cc1ccccc1)NC(=O)[C@H](CC(=O)O)NCCCc1ccc(OC)c(O)c1", "note": "[advantame]", "values": [{"measurement": "sweetness, times as sweet as sucrose", "result": "about 20 thousand"}]}, {"smiles": "O=C1NS(=O)(=O)c2ccccc21", "note": "[saccharin]", "values": [{"measurement": "sweetness, times as sweet as sucrose", "result": "300 to 500", "unit": "times"}]}]}
